Source: patent US20150204881A1, “Biomarkers For Diagnosis Of Diabetes And Monitoring Of Anti-Diabetic Therapy” (Sumitomo Bakelite Co., Ltd., priority 2012, published 2015)
For at least one compound, name, drawing or mass did not settle the structure.

System: db/db mice
Experiment: Plasma N-glycan profiling (GLYCANMAP, MALDI-TOF MS) in rosiglitazone- vs vehicle-treated db/db mice (initial and confirmatory studies)
Format: in vivo, mouse
[1] = plasma, db/db mice, 10 mpk oral once daily vs vehicle, rosiglitazone studies

CN(CCOc1ccc(CC2SC(=O)NC2=O)cc1)c1ccccn1 (centres unmarked) [Rosiglitazone]
significant decrease: Complex glycan 540020 vs vehicle (first rosiglitazone study, Day 7 (p<0.001), sustained at subsequent time points)
Increased: Direction of Change with Rosiglitazone: Fucosylated glycan 651030 [1] | Direction of Change with Rosiglitazone: Fucosylated glycan 651031 [1] | Direction of Change with Rosiglitazone: Fucosylated glycan 761040 [1]
lower levels: Hybrid glycans (430010, 530010, 630010) vs vehicle controls (first rosiglitazone study)
Decreased: Direction of Change with Rosiglitazone: Complex glycan 540020 [1] | Direction of Change with Rosiglitazone: High Mannose glycan 520000 [1] | Direction of Change with Rosiglitazone: High Mannose glycan 620000 [1] | Direction of Change with Rosiglitazone: High Mannose glycan 720000 [1] | Direction of Change with Rosiglitazone: High Mannose glycan 820000 [1] | Direction of Change with Rosiglitazone: High Mannose glycan 920000 [1] | Direction of Change with Rosiglitazone: Hybrid glycan 430010 [1] | Direction of Change with Rosiglitazone: Hybrid glycan 530010 [1] | Direction of Change with Rosiglitazone: Hybrid glycan 630010 [1] | Direction of Change with Rosiglitazone: O-Acetylated glycan 540021 [1] | Direction of Change with Rosiglitazone: O-Acetylated glycan 540022 [1] | Direction of Change with Rosiglitazone: O-Acetylated glycan 540031 [1] | Direction of Change with Rosiglitazone: O-Acetylated glycan 540032 [1]
higher: Fucosylated N-glycans (651030, 651031, 761040) vs vehicle-treated db/db mice (Study 2 (confirmatory), Day 7)
significantly higher levels: Fucosylated glycans (651030, 651031, 761040) vs vehicle controls (first rosiglitazone study, 651030 and 651031 p<0.001 at 7 days, sustained, 651031 also Day 3)
lower: High mannose N-glycans (520000-920000) vs vehicle-treated db/db mice (Study 2 (confirmatory), Day 7) | O-acetylated N-glycans (540021, 540022, 540031, 540032) vs vehicle-treated db/db mice (Study 2 (confirmatory), Day 7) | Glycan 540020 vs vehicle-treated db/db mice (Study 2 (confirmatory), Day 7, p<0.0001) | Hybrid N-glycans (430010, 530010, 630010) vs vehicle-treated db/db mice (Study 2 (confirmatory), Day 7, p<0.001) | High-mannose N-glycans (520000, 620000, 720000, 820000, 920000) vs vehicle-treated db/db mice (first rosiglitazone study, all significant at Day 7, Man6GlcNAc2 and Man7GlcNAc2 at Day 3)
significant lower levels: O-acetylated N-glycans (540021, 540022, 540031, 540032) vs vehicle (first rosiglitazone study, p<0.001 as early as seven days, sustained, 540021 and 540022 Day 3)
